Assay results from patent US20250331521A1, “NITROGEN-CONTAINING HETEROCYCLIC COMPOUND HAVING AN OXIME GROUP, AGRICULTURAL OR HORTICULTURAL HERBICIDE COMPRISING THE COMPOUND, AND METHOD FOR USING THE COMPOUND OR THE HERBICIDE” (NIHON NOHYAKU CO., LTD., priority 2022, published 2025).
Some results were stated once for a whole list of compounds, not compound by compound. Some compounds share one range, which may span the group rather than tell each member.

Tested on: Barnyard grass (Echinochloa crus-galli)
Test: Test Example 1: post-emergence herbicidal effect against paddy weeds
Type: in vivo
Details: active ingredient concentration 10 ppm; drop treatment in hydroponic medium; 30° C., full light; six days after treatment; compared to non-treatment group
Protocol: Test Example 1: Test for Post-Emergence Herbicidal Effect Against Paddy Weeds Barnyard grass (Echinochloa crus-galli) was seeded and grown in test tubes containing hydroponic medium in an artificial climate chamber or a phytotron. Agrochemical formulations containing the compounds of the present invention as active ingredients prepared according to Formulation Example 1 were separately diluted with water so that the concentration of the active ingredient would be a predetermined concentration and used for drop treatment of the barnyard grass. The barnyard grass was grown in the artificial climate chamber at 30° C. under full light conditions. Six days after agrochemical treatment, the herbicidal effect was evaluated as compared to the non-treatment group according to the following criteria. Criteria for Herbicidal Effect (Degree of Growth Inhibition) and Phytotoxicity • Score 4 90% to 100% herbicidal effect • Score 3 70% to 89% herbicidal effect • Score 2 40% to 69% herbicidal effect • Score 1 1% to 39% herbicidal effect • Score 0 0% herbicidal effect

CCO/N=C(\N)c1ccc(S(C)(=O)=O)c(-c2nc(-c3ccccc3Cl)nn2C)n1 [1-5]
herbicidal effect against barnyard grass (score, degree of growth inhibition): 3 (Score 3 70% to 89% herbicidal effect)
